Source: paper PMC6024076, “mRNA Deadenylation Is Coupled to Translation Rates by the Differential Activities of Ccr4-Not Nucleases”
Results are given in words; binding and its absence hold for the method and conditions named. Some results given as binding are weak or reduced against the parent protein; the word gives no strength. Sequences can lack the tags named with a protein.

Molecular target: T1, S. pombe Caf1 with Strep II tag, expressed in Sf9 (subunit of the Caf1-Ccr4 heterodimer) (S. pombe) (UniProt O74856)
T1 sequence: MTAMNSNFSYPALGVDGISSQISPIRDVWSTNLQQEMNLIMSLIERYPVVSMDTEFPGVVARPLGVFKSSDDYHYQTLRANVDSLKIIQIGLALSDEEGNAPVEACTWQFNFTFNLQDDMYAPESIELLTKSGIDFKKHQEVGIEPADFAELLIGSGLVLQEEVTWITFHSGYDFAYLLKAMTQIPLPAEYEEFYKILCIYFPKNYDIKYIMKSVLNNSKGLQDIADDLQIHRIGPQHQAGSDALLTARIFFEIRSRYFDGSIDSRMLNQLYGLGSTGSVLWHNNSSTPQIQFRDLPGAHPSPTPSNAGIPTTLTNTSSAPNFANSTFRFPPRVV
Assay: co-purification (Strep II affinity capture, HiTrap Q anion exchange, Superdex 200 SEC); captured from Sf9 lysate by the Strep II tag on Caf1; separated from Ccr4-Not on HiTrap Q; SEC in 20 mM HEPES pH 7.4, 50 mM NaCl, 0.1 mM TCEP

B1: S. pombe Ccr4, expressed in Sf9 (subunit of the Caf1-Ccr4 heterodimer) (enzyme, UniProt O74874 1-690)
chain: MFNPRYTQGTIYPGAHPGLLTPDHQHAAILSVQNSPALENSNISEHWKQQIALATQSRSFSSPHQRAHNAAALARSGGPGFSMNYNARTGAFTGGPNAAGLSSLGGKYNTSSTTTTLTTSTTLNTSSGTTLNSTSKTTTSSVAVDDQKSKSDSKKERRDWTCLDLGGIGLRNVSTDLFKFSFLTELYINHNNLTRLPPEIGKLKNLVILDASGNSIKTIPPELGLLTELREVLLFDNMISVIPAELGTLFQLKILGIEGNPLQDVYKNQIMESGTAGLIAALRDGCPVGPPPPERGWEKLVSDDDDDVNDNVSTSVRDLTAADSNKPSTTSKNLKFTIMSYNVLCERYATSTLYGYTPSWALSWSYRKDLIMQELGGYNADIICLQEVDVENYDTFFAPQMSLKGYKGVHFPKSRVRTMNEVERRIVDGCATFFKTSKYVMHEKMVIEYNQAPSLRRQDIKLTSNMYNRVMTKDNISVITLLENKENGSRLIVANCHIHWDPQFRDVKVIQVAMLMDEIAQVATKFRNMPSKIPSDQLKDERPTYPEYLKIPILICGDFNSVQGSGVYDFLSSGSISQNHEDFMNNDYGEYTVNGRSHAFNLKSAYGESEALSFTNYTPGFKGAIDHIWYTGNSLEVTGLLKGVDKDYLSGVVGFPNAHFPSDHICLLAEFKVKQEKTPLPSSKFNNDKK
binding: binds
